Source: PubChem BioAssay AID720533 (National Center for Advancing Translational Sciences (NCATS), 2013)
Where “and” joins values, the source holds several entries; their conditions need not be identical. Identical values can stand only once. The whole screen tested about 18,000 compounds, of which about 750 (4.2%) were called active. This list was built around the results that the source calls inconclusive (neither active nor inactive); the mix of calls is not that of the screen. Calls follow the shape of the full dose curve; tested in HEK293 cells. Potencies of inconclusive entries are doubtful fits and often do not repeat.

Assay: qHTS for Inhibitors of binding or entry into cells for Lassa Virus
Conditions: Lassa virus pseudotyped entry inhibition, cell-based qHTS; activity change, negative = inhibition: at 49.2 µM (top of the series) unless noted
% is scaled to controls: 0 for no effect and ±100 for the full control effect; potency is read from the fitted curve at half-maximal effect.

Row | Structure (SMILES) | Potency | activity change, negative = inhibition
1 | COC12CC[C@@]3(C[C@@H]1C(C)(O)C(C)(C)C)[C@H]1Cc4ccc(O)c5c4[C@@]3(CCN1CC1CC1)[C@H]2O5 (stereo partly drawn) | active: 28.2 µM | 
2 | C=CCNC1=C2C[C@@H](C)C[C@H](OC)[C@H](O)[C@@H](C)/C=C(\C)[C@H](OC(N)=O)[C@@H](OC)/C=C/C=C(\C)C(=O)NC(=CC1=O)C2=O | active: 2.24 µM | 
3 | CC(=O)OC[C@H]1O[C@H](C#Cc2ccc(C(C)(C)C)cc2)C=C[C@H]1OC(C)=O |  | inactive: -25.6% [at 8.59 µM]
4 | COc1ccc2[nH]c(S(=O)Cc3ncc(C)c(OC)c3C)nc2n1 (stereo not drawn) | inconclusive: 35.5 µM [inhibitor, partial curve, poor fit] | 
5 | C=CCOC[C@@H]1CN2[C@H](c3ccc(Br)cc3)[C@@H](C)CC[C@H]2C(=O)O1 | inactive | 
6 | Cc1cc2nc3c(=O)[nH]c(=O)nc-3n(C[C@H](O)[C@H](O)[C@H](O)COP(=O)(O)OP(=O)(O)OC[C@H]3O[C@@H](n4cnc5c(N)ncnc54)[C@H](O)[C@@H]3O)c2cc1C | inactive | 
7 | COc1cc2c(cc1OC)[C@@H]1C(=O)c3ccc4c(c3O[C@@H]1CO2)C=CC(C)(C)O4 | inconclusive: 28.2 µM [inhibitor, partial curve, poor fit] | 
8 | CCCCCN=c1ccn(Cc2ccccc2)c2ccccc12 | active: 20 µM | 
9 | COC(=O)[C@@H]1C[C@@]23C(=NN=C(SC)C2Nc2ccccc23)N1C(C)=O (stereo partly drawn) |  | inactive: -8.63% [at 8.59 µM]
10 | CC(C)(O)C#Cc1ccc(C(=O)NCCN2Cc3ccccc3OC(c3ccccc3F)C2)o1 (stereo not drawn) | inactive | 
11 | Oc1cc(-c2nc3ccccc3s2)cc2c1OCCN(Cc1cccn1-c1ccccn1)C2 | inconclusive: 35.5 µM [inhibitor, single point] | 
12 | CN1CC[C@@H]2CN3CCc4cccc(c43)[C@@H]2C1 | inactive | 
13 | CCC/C=C/C=C/C(=O)O[C@H]1/C(=C/C(=O)OC)C[C@H]2C[C@H]([C@@H](C)O)OC(=O)C[C@H](O)C[C@@H]3C[C@H](OC(C)=O)C(C)(C)[C@](O)(C[C@@H]4C/C(=C/C(=O)OC)C[C@H](/C=C/C(C)(C)[C@]1(O)O2)O4)O3 | inconclusive: 11.2 µM [inhibitor, partial curve] | 
14 | O=C(Nc1ccc(/C=C/c2ccc(NC(=O)c3cc(S(=O)(=O)O)c4cccnc4c3O)cc2S(=O)(=O)O)c(S(=O)(=O)O)c1)c1cc(S(=O)(=O)O)c2cccnc2c1O | inactive | 
15 | COc1cc(OC)c2c(-c3cccc(-c4cccc(N)c4)c3)cc(=O)oc2c1 | inconclusive: 1.41 µM [inhibitor, full curve, poor fit] | 
16 | CCOC(=O)c1ccc(-c2c(C)cc3oc(=O)cc(-c4ccccc4)c3c2C)cc1 | inconclusive: 2 µM [inhibitor, full curve] | 
17 | CN(Cc1ccc(C(C)(C)C)cc1)Cc1cccc2ccccc12 | inconclusive: 35.5 µM [inhibitor, single point] | 
18 | N=C(CC(O)COc1ccccc1-c1ccccc1)N1CCCCC1 (stereo not drawn) | inconclusive: 31.6 µM [inhibitor, single point] | 
19 | COc1ccc(CNc2nc(-c3ccccc3OC)nc3ccccc23)c(OC)c1 | inconclusive: 12.6 µM [inhibitor, partial curve] | 
20 | CCOC(=O)NN=C1C[C@@H](O)[C@@H](O)[C@@H]2[C@H]3C(=O)N(c4ccc(F)cc4F)C(=O)[C@@H]3CC[C@H]12 |  | inactive: 8.99% [at 8.59 µM]

Row | Structure (SMILES) | Potency | activity change, negative = inhibition
21 | O=C(Nc1ccc(Oc2ccc3nc(NC(=O)c4ccccc4)[nH]c3c2)cc1)Nc1cc(C(F)(F)F)ccc1F | inconclusive: 6.28 µM [inhibitor, full curve, poor fit] | 
22 | Cc1cccc(C)c1Nc1oc(-c2ccccc2)nc1-c1ccccc1F |  | inconclusive: -10% [inhibitor] [at 8.59 µM]
23 | C=C(C)C1CC23C(=O)[C@]4(C(=O)c5ccccc5)C[C@@]5(C)CCC(CC2C1(C)C)(C4=O)[C@@]35OC (stereo partly drawn) |  | inactive: -2.37% [at 8.59 µM]
24 | CN1C2CCC1CC(NC(=O)c1nn(C)c3ccccc13)C2 (stereo not drawn) | inconclusive: 35.5 µM [inhibitor, single point] | 
25 | CCCCCCCCCCCCCCCCOCCOCCOCCOCCOCCOCCOCCOCCOCCOCCOCCOCCOCCOCCOCCOCCOCCOCCOCCOCCO | active: 15.8 µM | 
26 | O=c1[nH]c(=O)n([C@H]2C[C@H](O)[C@@H](CO)O2)cc1C(F)(F)F | inconclusive: 8.91 µM [inhibitor, partial curve] | 
27 | c1ccc2c(Nc3ccncc3)nc(-c3ccc4c(c3)OCO4)nc2c1 | inconclusive: 35.5 µM [inhibitor, single point] | 
28 | O=C(C[C@H]1C(=O)N(c2ccccc2)C[C@@H]1Cc1ccccc1)Nc1ccccc1 | inconclusive: 28.1 µM [inhibitor, partial curve, poor fit] | 
29 | C[C@]12O[C@H](C[C@]1(O)CO)n1c3ccccc3c3c4c(c5c6ccccc6n2c5c31)CNC4=O | active: 11.2 µM | 
30 | Cc1nc2ccc(NC(=O)Nc3ccnc4cccnc34)cc2o1 | inconclusive: 25.1 µM [inhibitor, partial curve] | 
31 | CC1(C)CN(CCc2ccccc2)C(=O)[C@@H]1CC(=O)Nc1ccc(Br)cc1 | inactive | 
32 | COC(=O)C1=C(C(=O)OC)[C@@H]2N(C)c3ccccc3[C@@]23C[C@@H](C(=O)OC)N(C(=O)c2ccc(Br)cc2)C3=N1 |  | inconclusive: 12.8% [inhibitor] [at 8.59 µM]
33 | OC[C@@H]1OC(O)[C@@H](O)[C@H](O)[C@@H]1O (stereo partly drawn) | inactive | 
34 | COC(=O)c1cc(CNC(=O)c2ccccc2F)cc(NC(=O)c2ccccc2OC)c1 | inconclusive: 28.2 µM [inhibitor, single point] | 
35 | CN1[C@@H]2CC[C@H]1CC(OC(=O)c1cc(Cl)cc(Cl)c1)C2 (stereo partly drawn) | inconclusive: 28.2 µM [inhibitor, partial curve] | 
36 | Cc1ccc(C(=O)OC[C@H]2O[C@H](Cl)C[C@H]2OC(=O)c2ccc(C)cc2)cc1 |  | inactive: -5.96% [at 8.59 µM]
37 | CN(C)c1ccc(/C=C2\C(=O)Nc3ccccc32)c2ccccc12 | inconclusive: 11.2 µM [inhibitor, partial curve, poor fit] | 
38 | COc1ccc(NC2C[C@H]3CCCC(=O)N4CC[C@@H](C2)[C@@H]34)cc1 (stereo partly drawn) | inconclusive: 35.5 µM [inhibitor, single point] | 
39 | CC(C)=CCCC(C)=CCON=C1C[C@@H](O)[C@@H](O)[C@@H]2[C@H]3C(=O)N(C[C@@H]4CCCO4)C(=O)[C@@H]3CC[C@H]12 |  | inactive: -17.1% [at 8.59 µM]
40 | COc1ccc2c(c1)-c1nc(-n3ncc(C(=O)NCc4cccnc4)c3C3CC3)ncc1CC2 | inconclusive: 28.2 µM [inhibitor, partial curve] | 

Row | Structure (SMILES) | Potency | activity change, negative = inhibition
41 | CC1(S(=O)(=O)O)CC(=O)c2ccccc2C1=O (stereo not drawn) | active: 25.1 µM | 
42 | O=C1CSC2(CCN(CCCN3c4ccccc4Sc4ccc(Cl)cc43)CC2)N1 | inconclusive: 28.2 µM [inhibitor, partial curve] | 
43 | Cc1ccc2c(c1)C(=O)[C@@]1(O)CCN(c3ccccc3)C1=N2 | inactive | 
44 | C/C(=C\C[Si](C)(C)C)CC[C@H](O)C1=CCCCC1=O | inactive | 
45 | C#CCCCON=C1C[C@@H](O)[C@H](O)[C@H]2[C@@H]3C(=O)N(Cc4ccccc4)C(=O)[C@@H]3CC[C@H]12 |  | inactive: 7.27% [at 8.59 µM]
46 | Cc1ccc2nc(NCCN)c3ncc(C)n3c2c1 | inconclusive: 15.8 µM [inhibitor, single point] | 
47 | C=C1CC[C@H](O)C/C1=C\C=C1/CCC[C@]2(C)[C@@H]([C@H](C)CCCC(C)C)CC[C@@H]12 | inconclusive: 35.5 µM [inhibitor, single point] | 
48 | C=C1CC[C@H](O)CC1=C/C=C1\CCC[C@]2(C)[C@@H]([C@H](C)/C=C/[C@H](C)C(C)C)CC[C@@H]12 | inconclusive: 31.6 µM [inhibitor, single point] | 
49 | CNc1ccc(-c2nc3ccccc3s2)cc1 | active: 10 µM | 
50 | C=C[C@](C)(O)CCC1C(=C)CC(OC(C)=O)C2C(C)(C)CCCC12C (stereo partly drawn) | inconclusive: 11.2 µM [inhibitor, partial curve] | 
51 | Cc1cc(C(C#N)c2ccc(Cl)cc2)c(Cl)cc1NC(=O)c1cc(I)cc(I)c1O (stereo not drawn) | inconclusive: 39.8 µM [inhibitor, single point] | 
52 | CC(C)[C@@H]1CN[C@H](C(=O)O)[C@@H]1CC(=O)O | inactive | 
53 | C=C(CO)C1Cc2c(ccc3c2OC2COc4cc(OC)c(OC)cc4C2C3=O)O1 (stereo not drawn) | inconclusive: 15.8 µM [inhibitor, partial curve] | 
54 | O=C(c1ccc(N2CCC(NCCCn3ncc4ccccc43)CC2)cc1)N1CCc2ccccc2C1 | inconclusive: 15.8 µM [inhibitor, partial curve, poor fit] | 
55 | CCN1C(N(C)CCc2c[nH]c3ccccc23)=NC(c2cccc(C(F)(F)F)c2)C(C(=O)OC)=C1C (stereo not drawn) |  | inactive: -23.1% [at 8.59 µM]
56 | COc1ccc([C@@H]2Sc3ccccc3N(CCN(C)C)C(=O)[C@@H]2OC(C)=O)cc1 | active: 7.94 µM and active: 11.2 µM and active: 4.47 µM | 
57 | O=C1NC(=O)c2cc(Nc3ccc(F)cc3)c(Nc3ccc(F)cc3)cc21 | inconclusive: 20 µM [inhibitor, single point] and inconclusive: 25.1 µM [inhibitor, single point] | 
58 | COc1cc(N)c(Cl)cc1C(=O)CCC1CCN(CCNS(C)(=O)=O)CC1 | inconclusive: 35.5 µM [inhibitor, single point] | 
